# In patent US9226913B2, “Methods of treating cancer using a combination of an immunomodulatory compound and an artemisinin or a derivative thereof” (Celgene Corporation, priority 2010, dated 2016):
# Entries after “also recorded” stand apart in the source; their conditions may differ. The name of at least one read-out is uncertain.
# Legend:
# Type in all cases: cell-based, human
# [1] = test system: A549 cells; test: Combination fixing the concentration of LEN, IC50 of ART by MTT (Example 6.2)
# [2] = test system: MCF7 cells; test: as above
# [3] = test system: HCT116, SW480 and MCF7 cells; test: Combination fixing the concentration of one drug (modulating dose model, Example 6.1); conditions: 72 hr MTT; for interaction with THAL (effect on IC50): co-culture with sub-optimal (~IC10) THAL
compound,measurement,setting,value
"C[C@H]1[C@H](OC(=O)CCC(=O)O)O[C@@H]2O[C@@]3(C)CC[C@H]4[C@H](C)CC[C@@H]1[C@@]24OO3 [Artesunate, artesunate]",effect of LEN (0.1 and 1 μM) on the effect of ART (IC50),[1],significant enhancements
same,effect of LEN (0.1 and 1 μM) on the effect of ART (IC50),[2],significant enhancements
"O=C1CCC(N2C(=O)c3ccccc3C2=O)C(=O)N1 (stereo not drawn) [Thalidomide, thalidomide]",interaction with THAL (effect on IC50),[3],no significant interaction
"C[C@H]1[C@H](N2CCS(=O)(=O)CC2)O[C@@H]2O[C@@]3(C)CC[C@H]4[C@H](C)CC[C@@H]1[C@@]24OO3 [Artemisone, artemisone]",interaction with GEM (effect on IC50),"[3]; co-culture with sub-optimal (~IC10) GEM, listed as ATM",no significant effect; also recorded: less prevalent
same,interaction with LEN (effect on IC50),"[3]; co-culture with sub-optimal (~IC10) LEN, all three cell lines, listed as ATM",genuine enhancement of drug activity; also recorded: strong enhancement of effect
same,interaction with THAL (effect on IC50),[3],did not greatly affect the IC50
